Read-outs that look alike come from different tables or passages of the source. These are yes or no findings as the source states them, for the method shown. In cells and extracts the contact can be indirect. Some entries that bind do so weakly or less than the wild type.

Chains of the proteins cited; added tags and fusions are not shown. Residues count along the entry.
UniProt P10809, residues 27-573: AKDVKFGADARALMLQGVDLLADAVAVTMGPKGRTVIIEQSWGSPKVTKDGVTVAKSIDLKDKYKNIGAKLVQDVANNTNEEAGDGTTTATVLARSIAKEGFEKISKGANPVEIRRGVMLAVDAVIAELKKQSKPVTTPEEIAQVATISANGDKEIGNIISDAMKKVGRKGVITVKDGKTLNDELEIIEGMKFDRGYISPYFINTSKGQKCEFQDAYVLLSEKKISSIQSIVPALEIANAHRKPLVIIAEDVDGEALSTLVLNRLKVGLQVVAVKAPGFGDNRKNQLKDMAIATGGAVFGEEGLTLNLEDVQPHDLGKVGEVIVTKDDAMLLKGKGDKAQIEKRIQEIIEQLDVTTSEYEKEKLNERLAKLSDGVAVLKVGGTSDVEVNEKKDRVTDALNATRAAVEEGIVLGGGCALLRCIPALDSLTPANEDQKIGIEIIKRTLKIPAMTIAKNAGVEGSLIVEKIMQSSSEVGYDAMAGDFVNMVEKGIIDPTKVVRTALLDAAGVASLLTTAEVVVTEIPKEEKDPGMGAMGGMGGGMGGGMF
UniProt O00206, residues 24-839: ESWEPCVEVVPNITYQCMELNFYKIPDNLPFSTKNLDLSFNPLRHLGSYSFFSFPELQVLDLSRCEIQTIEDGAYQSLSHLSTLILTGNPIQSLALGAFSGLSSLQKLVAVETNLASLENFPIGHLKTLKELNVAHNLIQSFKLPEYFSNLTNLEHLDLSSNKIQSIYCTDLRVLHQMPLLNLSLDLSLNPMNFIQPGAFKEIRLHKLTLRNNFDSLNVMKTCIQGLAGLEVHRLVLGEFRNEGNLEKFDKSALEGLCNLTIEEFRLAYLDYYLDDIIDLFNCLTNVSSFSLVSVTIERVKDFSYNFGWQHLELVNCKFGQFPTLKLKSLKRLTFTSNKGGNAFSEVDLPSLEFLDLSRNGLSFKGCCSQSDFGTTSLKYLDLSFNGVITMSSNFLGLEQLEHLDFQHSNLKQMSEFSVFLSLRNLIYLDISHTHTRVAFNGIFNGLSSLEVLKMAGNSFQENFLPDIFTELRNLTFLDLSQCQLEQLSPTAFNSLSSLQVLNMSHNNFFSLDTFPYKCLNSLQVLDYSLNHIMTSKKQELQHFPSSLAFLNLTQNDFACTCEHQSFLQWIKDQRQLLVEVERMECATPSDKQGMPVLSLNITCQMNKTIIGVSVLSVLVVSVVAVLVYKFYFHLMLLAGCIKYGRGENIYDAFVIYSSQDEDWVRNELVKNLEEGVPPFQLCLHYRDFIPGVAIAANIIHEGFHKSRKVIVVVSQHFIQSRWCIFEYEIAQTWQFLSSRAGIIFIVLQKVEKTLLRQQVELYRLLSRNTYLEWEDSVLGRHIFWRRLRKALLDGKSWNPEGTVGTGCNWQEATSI

Assay [1] concerns the target chaperonin 60 (CH60), cell surface / plasma membrane-associated (human (endogenous in RPMI8226)) (UniProt P10809). Put plainly: pull-down; streptavidin-agarose coprecipitation of biotinylated CH60 (labelled via biotinylated MBP-PTR1) from gel-filtered RPMI8226 membrane fractions; binding buffer 150 mM NaCl, 20 mM Tris-HCl, 1 mM EDTA, resin blocked with 1% BSA, overnight at 4°C; immunoblot; competition control with excess non-biotinylated MBP-PTR1.

For assay [2] the target is unchanged. Described as above. This is another data set of the same source.

“TLR4 (from UniProt O00206 24-839) (receptor)”: the binding entry in assay [1] is on record as “binds”.

B1: CD14 (protein, UniProt P08571 20-345)
chain: TTPEPCELDDEDFRCVCNFSEPQPDWSEAFQCVSAVEVEIHAGGLNLEPFLKRVDADADPRQYADTVKALRVRRLTVGAAQVPAQLLVGALRVLAYSRLKELTLEDLKITGTMPPLPLEATGLALSSLRLRNVSWATGRSWLAELQQWLKPGLKVLSIAQAHSPAFSCEQVRAFPALTSLDLSDNPGLGERGLMAALCPHKFPAIQNLALRNTGMETPTGVCAALAAAGVQPHSLDLSHNSLRATVNPSAPRCMWSSALNSLNLSFAGLEQVPKGLPAKLRVLDLSCNRLNRAPQPDELPEVDNLTLDGNPFLVPGTALPHEGSMN
B1: the binding entry in assay [2] is “no binding”.

B2: MD-2 (protein, UniProt Q9Y6Y9 19-160)
chain: QKQYWVCNSSDASISYTYCDKMQYPISINVNPCIELKRSKGLLHIFYIPRRDLKQLYFNLYITVNTMNLPKRKEVICRGSDDDYSFCRALKGETVNTTISFSFKGIKFSKGKYKCVVEAISGSPEEMLFCLEFVILHQPNSN
Turning to B2, the binding result in assay [2] is “binds”.

The record behind these values is article PMC9748848.
